Measurements published in the supplement of paper PMC10849652.
Some of the results follow.

Chains of the proteins cited; added tags and fusions are not shown. Lines headed by an entry give the natural chain unless they say otherwise; changes in a name come on top.
UniProt Q9NR12, whole entry, looked up: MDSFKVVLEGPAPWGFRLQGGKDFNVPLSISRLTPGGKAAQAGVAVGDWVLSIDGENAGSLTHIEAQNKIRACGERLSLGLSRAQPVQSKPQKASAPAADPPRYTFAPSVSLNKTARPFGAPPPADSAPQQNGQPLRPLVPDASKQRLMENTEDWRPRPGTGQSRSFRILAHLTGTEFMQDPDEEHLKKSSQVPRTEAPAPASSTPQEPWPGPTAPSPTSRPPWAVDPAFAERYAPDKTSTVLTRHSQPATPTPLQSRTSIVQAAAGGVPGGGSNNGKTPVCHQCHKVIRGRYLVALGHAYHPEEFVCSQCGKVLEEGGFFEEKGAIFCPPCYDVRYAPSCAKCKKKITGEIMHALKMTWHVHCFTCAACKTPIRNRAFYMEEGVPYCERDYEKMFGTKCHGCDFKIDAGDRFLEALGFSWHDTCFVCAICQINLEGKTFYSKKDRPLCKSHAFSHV
UniProt Q8NCN5: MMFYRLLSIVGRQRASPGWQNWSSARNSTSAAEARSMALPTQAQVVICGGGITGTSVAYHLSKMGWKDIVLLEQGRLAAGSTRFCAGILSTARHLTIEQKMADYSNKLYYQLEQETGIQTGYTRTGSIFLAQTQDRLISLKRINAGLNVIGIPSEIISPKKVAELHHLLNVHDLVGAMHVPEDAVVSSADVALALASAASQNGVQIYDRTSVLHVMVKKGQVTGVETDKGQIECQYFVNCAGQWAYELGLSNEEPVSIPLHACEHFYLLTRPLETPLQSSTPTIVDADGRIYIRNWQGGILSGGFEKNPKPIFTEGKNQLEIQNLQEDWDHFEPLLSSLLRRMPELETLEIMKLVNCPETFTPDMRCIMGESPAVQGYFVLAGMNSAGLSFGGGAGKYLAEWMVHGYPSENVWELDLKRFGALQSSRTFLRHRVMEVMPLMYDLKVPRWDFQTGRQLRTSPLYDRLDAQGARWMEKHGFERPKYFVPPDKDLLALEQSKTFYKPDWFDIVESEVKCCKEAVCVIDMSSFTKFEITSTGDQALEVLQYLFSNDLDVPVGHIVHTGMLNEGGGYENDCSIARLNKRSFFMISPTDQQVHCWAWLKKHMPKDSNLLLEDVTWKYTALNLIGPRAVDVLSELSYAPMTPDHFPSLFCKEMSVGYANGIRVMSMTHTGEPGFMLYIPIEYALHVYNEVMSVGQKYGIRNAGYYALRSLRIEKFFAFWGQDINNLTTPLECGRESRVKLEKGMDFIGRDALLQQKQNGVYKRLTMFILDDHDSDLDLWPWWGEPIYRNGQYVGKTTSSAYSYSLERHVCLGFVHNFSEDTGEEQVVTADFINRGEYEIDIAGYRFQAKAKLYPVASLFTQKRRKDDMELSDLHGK
UniProt Q53EL6: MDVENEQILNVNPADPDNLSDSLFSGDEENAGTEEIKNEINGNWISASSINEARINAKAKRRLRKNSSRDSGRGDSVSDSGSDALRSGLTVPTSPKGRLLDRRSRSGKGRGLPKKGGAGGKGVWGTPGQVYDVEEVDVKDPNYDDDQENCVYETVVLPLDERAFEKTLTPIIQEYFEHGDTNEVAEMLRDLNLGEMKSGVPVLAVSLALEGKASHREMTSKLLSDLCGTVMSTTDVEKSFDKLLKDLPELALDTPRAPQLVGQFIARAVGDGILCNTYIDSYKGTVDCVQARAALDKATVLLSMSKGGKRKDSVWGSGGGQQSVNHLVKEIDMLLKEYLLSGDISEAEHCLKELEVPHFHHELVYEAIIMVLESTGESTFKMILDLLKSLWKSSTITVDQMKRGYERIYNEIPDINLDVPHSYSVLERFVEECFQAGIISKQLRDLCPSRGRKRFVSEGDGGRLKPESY
UniProt Q8IZL8: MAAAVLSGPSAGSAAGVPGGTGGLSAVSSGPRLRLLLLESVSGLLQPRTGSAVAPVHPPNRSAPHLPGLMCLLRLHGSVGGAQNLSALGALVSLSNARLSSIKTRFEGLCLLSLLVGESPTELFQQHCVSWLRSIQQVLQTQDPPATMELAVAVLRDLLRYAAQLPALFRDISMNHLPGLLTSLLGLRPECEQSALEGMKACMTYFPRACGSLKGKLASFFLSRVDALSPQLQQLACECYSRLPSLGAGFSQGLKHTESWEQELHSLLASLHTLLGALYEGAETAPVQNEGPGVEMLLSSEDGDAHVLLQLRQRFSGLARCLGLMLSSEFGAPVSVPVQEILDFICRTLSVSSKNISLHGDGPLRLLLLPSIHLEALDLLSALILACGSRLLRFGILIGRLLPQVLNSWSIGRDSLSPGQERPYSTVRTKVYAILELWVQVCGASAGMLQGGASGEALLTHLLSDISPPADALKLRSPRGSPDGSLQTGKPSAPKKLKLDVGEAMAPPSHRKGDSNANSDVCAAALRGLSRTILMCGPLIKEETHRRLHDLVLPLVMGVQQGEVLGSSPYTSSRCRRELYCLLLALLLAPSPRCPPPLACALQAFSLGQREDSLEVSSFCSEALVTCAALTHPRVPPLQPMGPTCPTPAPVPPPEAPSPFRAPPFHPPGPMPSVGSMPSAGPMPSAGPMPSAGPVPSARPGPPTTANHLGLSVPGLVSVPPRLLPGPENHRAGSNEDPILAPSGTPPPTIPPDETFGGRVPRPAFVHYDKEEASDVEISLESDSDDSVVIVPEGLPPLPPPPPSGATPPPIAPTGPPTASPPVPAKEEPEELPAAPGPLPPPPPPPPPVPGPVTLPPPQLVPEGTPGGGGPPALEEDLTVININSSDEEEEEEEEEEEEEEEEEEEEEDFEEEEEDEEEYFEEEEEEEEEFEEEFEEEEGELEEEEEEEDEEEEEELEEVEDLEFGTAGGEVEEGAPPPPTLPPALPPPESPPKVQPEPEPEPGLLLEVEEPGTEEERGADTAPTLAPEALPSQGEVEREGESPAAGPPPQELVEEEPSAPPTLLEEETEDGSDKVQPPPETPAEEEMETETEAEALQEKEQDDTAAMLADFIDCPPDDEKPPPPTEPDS
UniProt O15067: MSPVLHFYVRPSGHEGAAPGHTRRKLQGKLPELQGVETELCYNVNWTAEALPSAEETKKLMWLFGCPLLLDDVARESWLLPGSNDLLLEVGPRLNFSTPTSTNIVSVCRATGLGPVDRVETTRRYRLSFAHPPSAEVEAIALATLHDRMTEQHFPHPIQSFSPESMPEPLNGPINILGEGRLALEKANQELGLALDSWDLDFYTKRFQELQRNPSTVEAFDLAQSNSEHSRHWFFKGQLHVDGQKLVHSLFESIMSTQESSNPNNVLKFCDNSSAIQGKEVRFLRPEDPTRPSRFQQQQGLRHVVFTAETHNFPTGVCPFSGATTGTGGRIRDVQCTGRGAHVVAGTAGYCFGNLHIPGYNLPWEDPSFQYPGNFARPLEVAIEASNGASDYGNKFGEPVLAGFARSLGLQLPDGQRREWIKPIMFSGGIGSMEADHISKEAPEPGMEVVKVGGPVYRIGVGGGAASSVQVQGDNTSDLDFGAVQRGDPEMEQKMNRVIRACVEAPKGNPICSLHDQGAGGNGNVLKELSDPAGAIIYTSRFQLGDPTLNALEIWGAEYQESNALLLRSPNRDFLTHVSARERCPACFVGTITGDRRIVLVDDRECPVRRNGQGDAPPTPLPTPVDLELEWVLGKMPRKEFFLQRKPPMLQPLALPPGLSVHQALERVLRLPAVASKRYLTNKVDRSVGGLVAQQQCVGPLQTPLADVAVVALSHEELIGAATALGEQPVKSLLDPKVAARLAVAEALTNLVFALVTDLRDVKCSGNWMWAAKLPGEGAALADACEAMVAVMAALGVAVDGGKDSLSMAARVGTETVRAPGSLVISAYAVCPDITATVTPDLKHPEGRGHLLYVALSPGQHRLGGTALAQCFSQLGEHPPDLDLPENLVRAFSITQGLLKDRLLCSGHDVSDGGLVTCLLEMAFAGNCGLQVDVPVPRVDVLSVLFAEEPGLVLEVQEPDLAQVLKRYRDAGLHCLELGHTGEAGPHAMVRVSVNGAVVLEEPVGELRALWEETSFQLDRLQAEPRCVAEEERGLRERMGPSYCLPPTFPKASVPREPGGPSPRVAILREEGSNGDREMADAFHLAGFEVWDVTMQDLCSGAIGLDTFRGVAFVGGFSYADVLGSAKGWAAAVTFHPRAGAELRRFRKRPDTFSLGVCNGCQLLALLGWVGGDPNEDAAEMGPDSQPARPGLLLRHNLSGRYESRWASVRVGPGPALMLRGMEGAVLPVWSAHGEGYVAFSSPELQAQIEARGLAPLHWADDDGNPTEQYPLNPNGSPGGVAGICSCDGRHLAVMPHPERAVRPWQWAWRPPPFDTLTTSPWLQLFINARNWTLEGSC
UniProt Q01813: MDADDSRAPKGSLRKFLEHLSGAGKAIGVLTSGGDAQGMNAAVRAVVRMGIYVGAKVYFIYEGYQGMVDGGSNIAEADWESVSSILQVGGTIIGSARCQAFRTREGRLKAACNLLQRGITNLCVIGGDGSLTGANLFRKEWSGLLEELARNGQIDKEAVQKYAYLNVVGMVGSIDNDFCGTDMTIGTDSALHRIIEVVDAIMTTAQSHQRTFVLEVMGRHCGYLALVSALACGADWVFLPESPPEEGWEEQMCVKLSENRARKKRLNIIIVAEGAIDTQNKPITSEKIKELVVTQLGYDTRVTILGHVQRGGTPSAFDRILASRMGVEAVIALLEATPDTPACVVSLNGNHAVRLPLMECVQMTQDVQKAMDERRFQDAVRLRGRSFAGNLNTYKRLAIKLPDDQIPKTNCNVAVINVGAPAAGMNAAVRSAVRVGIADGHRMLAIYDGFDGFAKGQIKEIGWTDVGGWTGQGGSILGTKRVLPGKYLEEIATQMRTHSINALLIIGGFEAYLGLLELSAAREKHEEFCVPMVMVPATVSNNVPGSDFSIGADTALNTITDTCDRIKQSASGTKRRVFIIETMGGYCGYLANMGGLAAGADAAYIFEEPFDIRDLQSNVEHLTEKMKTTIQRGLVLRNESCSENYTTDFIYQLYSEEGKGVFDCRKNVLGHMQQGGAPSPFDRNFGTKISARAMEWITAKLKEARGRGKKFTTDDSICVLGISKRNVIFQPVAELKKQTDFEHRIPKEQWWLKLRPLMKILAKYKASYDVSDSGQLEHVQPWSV
UniProt O00541, whole entry, looked up: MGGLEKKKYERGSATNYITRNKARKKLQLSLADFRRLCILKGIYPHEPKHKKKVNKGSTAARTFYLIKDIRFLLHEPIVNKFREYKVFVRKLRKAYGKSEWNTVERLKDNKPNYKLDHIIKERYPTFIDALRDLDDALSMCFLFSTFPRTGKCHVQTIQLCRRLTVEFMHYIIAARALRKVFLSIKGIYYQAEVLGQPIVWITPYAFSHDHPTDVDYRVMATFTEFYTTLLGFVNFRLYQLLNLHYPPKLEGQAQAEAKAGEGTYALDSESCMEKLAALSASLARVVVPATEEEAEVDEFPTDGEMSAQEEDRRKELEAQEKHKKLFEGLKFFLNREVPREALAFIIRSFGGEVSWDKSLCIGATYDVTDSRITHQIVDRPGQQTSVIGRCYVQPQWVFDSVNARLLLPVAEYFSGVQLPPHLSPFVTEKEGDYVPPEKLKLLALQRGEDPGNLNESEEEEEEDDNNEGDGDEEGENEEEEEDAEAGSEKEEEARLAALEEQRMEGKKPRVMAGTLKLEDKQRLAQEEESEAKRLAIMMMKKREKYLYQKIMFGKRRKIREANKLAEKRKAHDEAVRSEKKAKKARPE
UniProt Q6L8Q7: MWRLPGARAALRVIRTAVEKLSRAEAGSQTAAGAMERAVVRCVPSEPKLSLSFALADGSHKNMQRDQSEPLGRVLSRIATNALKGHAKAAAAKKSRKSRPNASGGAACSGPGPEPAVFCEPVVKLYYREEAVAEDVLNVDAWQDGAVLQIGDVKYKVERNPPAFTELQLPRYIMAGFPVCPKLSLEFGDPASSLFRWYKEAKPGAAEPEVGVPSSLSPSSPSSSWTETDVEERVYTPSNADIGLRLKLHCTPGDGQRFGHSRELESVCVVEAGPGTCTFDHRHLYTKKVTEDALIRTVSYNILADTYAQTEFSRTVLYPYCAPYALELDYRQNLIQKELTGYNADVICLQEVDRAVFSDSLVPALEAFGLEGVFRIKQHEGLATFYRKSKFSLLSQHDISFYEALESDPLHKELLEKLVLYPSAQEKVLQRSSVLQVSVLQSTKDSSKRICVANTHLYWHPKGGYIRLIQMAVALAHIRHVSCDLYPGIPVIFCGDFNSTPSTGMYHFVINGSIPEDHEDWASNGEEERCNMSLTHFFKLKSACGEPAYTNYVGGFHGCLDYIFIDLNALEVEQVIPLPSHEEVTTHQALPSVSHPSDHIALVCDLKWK
UniProt P35227: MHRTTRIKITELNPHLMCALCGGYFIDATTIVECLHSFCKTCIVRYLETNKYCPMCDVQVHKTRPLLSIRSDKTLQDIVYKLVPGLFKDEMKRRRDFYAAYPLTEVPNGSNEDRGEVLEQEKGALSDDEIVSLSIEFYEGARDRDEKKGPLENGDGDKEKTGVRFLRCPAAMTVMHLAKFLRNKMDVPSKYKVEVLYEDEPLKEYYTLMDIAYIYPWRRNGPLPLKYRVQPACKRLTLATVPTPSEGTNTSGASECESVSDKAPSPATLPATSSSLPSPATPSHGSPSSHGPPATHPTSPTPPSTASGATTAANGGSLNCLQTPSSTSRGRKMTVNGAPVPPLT

Experiments:
Assay in all cases: log2 fold change, soluble protein after heating vs DMSO (PISA); higher = thermal stabilisation; K562 lysate, 10 uM; active = over 0.2 and 3.5 SD of the protein, either way, in both replicates (recomputed)
erlotinib = compound: C#Cc1cccc(Nc2ncnc3cc(OCCOC)c(OCCOC)cc23)c1 [erlotinib]
In short: (§1)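 Quantification was by TMTpro 16plex LC-MS/MS with equalised channel sums, applied to the supernatant after 21,000xg for 90 min. Samples were crude K562 extract at 1 mg/mL protein in PBS pH 7.4 with 1 mM MgCl2, treated with 10 μM compound for 30 min, heated for 3 min across 48°C-58°C, pooled and brought to 0.5% NP-40 at 4°C. Values are log-two fold changes in thermal stability relative to solvent controls, from duplicates.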

[1] = compound: C/C(=N\NC(=O)C1=CC(=CC=C1)S(=O)(=O)N2CCOCC2)/C3=C(C=CC(=C3)Cl)O
In short: as §1

[2] = compound: C1=CC(=CC=C1C2=NC3=C(N2)C=C(C=C3)C(=O)N)OC4=CC=C(C=C4)Cl
In short: as §1

[3] = compound: C1=CC2=C(C=CC(=C2)/C=C\3/C(=O)NC(=NCC4=CC=CS4)S3)N=C1
In short: as §1

[4] = compound: C1=CC2=NC=CN=C2C=C1/C=C/3\C(=O)NC(=O)S3
In short: as §1

[5] = compound: C1=CC=C(C=C1)C2=NC(=C(N2)C3=CC=NC=C3)C4=CC(=C(C=C4)Cl)O
In short: as §1

[6] = compound: C1=CC=C2C(=C1)C3=NNC4=CC=CC(=C43)C2=O
In short: as §1

[7] = compound: C1CCN(C1)C(=O)NC2=CC=CC(=C2)NC3=NC=C(C(=N3)NCCC4=CN=CN4)Br
In short: as §1

[8] = compound: C1CN(CCC1(CC2=CC=C(C=C2)Cl)N)C3=NC=NC4=C3C=CN4
In short: as §1

IRAK-1-4 Inhibitor I = compound: C1COCCN1CCN2C3=CC=CC=C3N=C2NC(=O)C4=CC(=CC=C4)[N+](=O)[O-] [IRAK-1-4 Inhibitor I]
In short: as §1

Measured: log2 fold change

PDLIM7 (UniProt Q9NR12)
inactive: erlotinib -0.014 | [1] -0.083 | [2] 0.029 | [3] -0.019 | [4] 0.005 | [5] -0.003 | [6] -0.022 | [7] 0.002 | [8] 0.018 | IRAK-1-4 Inhibitor I 0.003

PDPR (UniProt Q8NCN5)
inactive: erlotinib -0.013 | [1] 0.025 | [2] 0.006 | [3] -0.01 | [4] 0.007 | [5] -0.013 | [6] -0.066 | [7] -0.003 | [8] 0.034 | IRAK-1-4 Inhibitor I -0.022

PDCD4 (UniProt Q53EL6)
inactive: erlotinib 0 | [1] -0.052 | [2] -0.02 | [3] -0.003 | [4] -0.004 | [5] -0.026 | [6] 0.014 | [7] -0.011 | [8] 0.008 | IRAK-1-4 Inhibitor I 0.015

PBX2 (UniProt P40425)
inactive: erlotinib 0.007 | [1] -0.24 | [2] -0.031 | [3] 0.059 | [4] -0.015 | [5] 0.023 | [6] -0.048 | [7] 0.008 | [8] -0.03 | IRAK-1-4 Inhibitor I 0.005

PCCA (UniProt P05165)
inactive: erlotinib -0.028 | [1] 0.025 | [2] 0.003 | [3] 0.02 | [4] -0.004 | [5] -0.059 | [6] -0.038 | [7] -0.044 | [8] 0.014 | IRAK-1-4 Inhibitor I 0.053

PCNT (UniProt O95613)
inactive: erlotinib 0.004 | [1] 0.019 | [2] 0.002 | [3] 0.001 | [4] -0.002 | [5] -0.033 | [6] -0.025 | [7] 0.017 | [8] -0.011 | IRAK-1-4 Inhibitor I 0.034

PELP1 (UniProt Q8IZL8)
inactive: erlotinib 0.025 | [1] 0.165 | [2] -0.019 | [3] -0.101 | [4] 0.014 | [5] -0.022 | [6] -0.046 | [7] 0.06 | [8] -0.044 | IRAK-1-4 Inhibitor I 0.006

PFAS (UniProt O15067)
inactive: erlotinib 0.014 | [1] 0.03 | [2] 0.006 | [3] 0.015 | [4] 0.011 | [5] -0.017 | [6] -0.018 | [7] -0.026 | [8] 0.001 | IRAK-1-4 Inhibitor I -0.006

PDSS1 (UniProt Q5T2R2)
inactive: erlotinib 0.154 | [1] -0.096 | [2] 0.02 | [3] 0.011 | [4] -0.038 | [5] -0.041 | [6] -0.172 | [7] -0.041 | [8] -0.079 | IRAK-1-4 Inhibitor I 0.064

PDF (UniProt Q9HBH1)
inactive: erlotinib 0.033 | [1] 0.07 | [2] -0.072 | [3] 0.005 | [4] -0.066 | [5] 0.066 | [6] -0.013 | [7] 0.047 | [8] -0.063 | IRAK-1-4 Inhibitor I 0.055

PDHX (UniProt O00330)
inactive: erlotinib 0 | [1] 0.039 | [2] 0.006 | [3] 0.013 | [4] -0.055 | [5] -0.007 | [6] -0.023 | [7] 0.031 | [8] -0.035 | IRAK-1-4 Inhibitor I -0.014

PFKP (UniProt Q01813)
inactive: erlotinib -0.01 | [1] -0.006 | [2] 0.019 | [3] -0.001 | [4] -0.01 | [5] 0 | [6] 0.032 | [7] 0.033 | [8] 0.031 | IRAK-1-4 Inhibitor I -0.003

PDIA3 (UniProt P30101)
inactive: erlotinib -0.023 | [1] 0.013 | [2] -0.011 | [3] -0.031 | [4] 0.003 | [5] -0.014 | [6] 0.007 | [7] 0.024 | [8] -0.009 | IRAK-1-4 Inhibitor I -0.009

PES1 (UniProt O00541)
inactive: erlotinib 0 | [1] -0.071 | [2] -0.014 | [3] -0.044 | [4] -0.001 | [5] 0.001 | [6] -0.012 | [7] 0.025 | [8] -0.056 | IRAK-1-4 Inhibitor I 0.037

PCYOX1 (UniProt Q9UHG3)
inactive: erlotinib -0.018 | [1] -0.021 | [2] 0.031 | [3] 0.03 | [4] 0.022 | [5] -0.032 | [6] 0.003 | [7] 0.039 | [8] 0.012 | IRAK-1-4 Inhibitor I -0.03

2 consecutive entries out of the list so far:
PES1 (UniProt O00541)
inactive: erlotinib 0 | [1] -0.071 | [2] -0.014 | [3] -0.044 | [4] -0.001 | [5] 0.001 | [6] -0.012 | [7] 0.025 | [8] -0.056 | IRAK-1-4 Inhibitor I 0.037

PCYOX1 (UniProt Q9UHG3)
inactive: erlotinib -0.018 | [1] -0.021 | [2] 0.031 | [3] 0.03 | [4] 0.022 | [5] -0.032 | [6] 0.003 | [7] 0.039 | [8] 0.012 | IRAK-1-4 Inhibitor I -0.03

Remaining list, next part:

PDLIM1 (UniProt O00151)
inactive: erlotinib -0.012 | [1] -0.02 | [2] 0.026 | [3] -0.014 | [4] 0.001 | [5] 0.008 | [6] 0.02 | [7] -0.001 | [8] 0.014 | IRAK-1-4 Inhibitor I 0.01

PCBD1 (UniProt P61457)
inactive: erlotinib -0.028 | [1] -0.064 | [2] -0.015 | [3] -0.075 | [4] -0.013 | [5] -0.064 | [6] 0.004 | [7] -0.02 | [8] 0.01 | IRAK-1-4 Inhibitor I -0.005

PFKFB2 (UniProt O60825)
inactive: erlotinib -0.007 | [1] -0.012 | [2] 0.03 | [3] -0.004 | [4] 0.005 | [5] -0.02 | [6] 0.02 | [7] -0.004 | [8] 0.002 | IRAK-1-4 Inhibitor I -0.001

PEX5 isoform 4 (UniProt P50542)
inactive: erlotinib 0.053 | [1] 0.042 | [2] -0.199 | [3] -0.041 | [4] 0.058 | [5] -0.02 | [6] -0.045 | [7] -0.13 | [8] 0.081 | IRAK-1-4 Inhibitor I -0.014

PFKFB4 (UniProt Q16877)
inactive: erlotinib 0.02 | [1] 0.044 | [2] 0.041 | [3] -0.024 | [4] -0.031 | [5] 0.096 | [6] -0.083 | [7] -0.003 | [8] 0.067 | IRAK-1-4 Inhibitor I -0.023

PDE12 (UniProt Q6L8Q7)
inactive: erlotinib 0.034 | [1] 0.029 | [2] -0.018 | [3] 0.003 | [4] 0.003 | [5] 0.029 | [6] -0.029 | [7] -0.04 | [8] 0.01 | IRAK-1-4 Inhibitor I 0.034

PEX14 (UniProt O75381)
inactive: erlotinib -0.034 | [1] 0.028 | [2] 0.024 | [3] 0.012 | [4] -0.008 | [5] -0.024 | [6] -0.054 | [7] 0.019 | [8] 0.03 | IRAK-1-4 Inhibitor I 0.018

PDRG1 (UniProt Q9NUG6)
inactive: erlotinib -0.028 | [1] 0.02 | [2] 0.066 | [3] -0.031 | [4] -0.037 | [5] 0.009 | [6] 0.042 | [7] -0.119 | [8] 0.093 | IRAK-1-4 Inhibitor I 0.03

PBDC1 (UniProt Q9BVG4)
inactive: erlotinib 0.014 | [1] -0.026 | [2] 0.011 | [3] -0.003 | [4] -0.006 | [5] -0.022 | [6] 0.029 | [7] -0.002 | [8] 0.009 | IRAK-1-4 Inhibitor I -0.012

PCGF2 (UniProt P35227)
inactive: erlotinib -0.016 | [1] -0.093 | [2] -0.081 | [3] 0.068 | [4] -0.017 | [5] 0.012 | [6] -0.009 | [7] -0.046 | [8] 0.041 | IRAK-1-4 Inhibitor I 0.018

PFKFB1 (UniProt P16118)
inactive: erlotinib -0.126 | [1] -0.031 | [2] 0.133 | [3] 0.076 | [4] -0.017 | [5] 0.01 | [6] 0.006 | [7] -0.02 | [8] -0.002 | IRAK-1-4 Inhibitor I 0.109

PCNA (UniProt P12004)
inactive: erlotinib -0.041 | [1] 0.009 | [2] -0.016 | [3] 0.006 | [4] 0.017 | [5] 0.009 | [6] 0.026 | [7] 0.021 | [8] -0.011 | IRAK-1-4 Inhibitor I -0.026

PEX19 (UniProt P40855)
inactive: erlotinib -0.001 | [1] -0.06 | [2] 0.042 | [3] 0.021 | [4] -0.033 | [5] -0.007 | [6] -0.019 | [7] -0.013 | [8] 0.059 | IRAK-1-4 Inhibitor I 0.024

PCBD2 (UniProt Q9H0N5)
inactive: erlotinib -0.012 | [1] -0.033 | [2] 0.044 | [3] -0.022 | [4] 0.079 | [5] 0.005 | [6] -0.014 | [7] -0.018 | [8] -0.015 | IRAK-1-4 Inhibitor I -0.01

PFKL isoform 2 (UniProt P17858)
inactive: erlotinib 0.106 | [1] 0.039 | [2] 0.066 | [3] 0.032 | [4] -0.011 | [5] 0 | [6] -0.012 | [7] 0.002 | [8] 0.056 | IRAK-1-4 Inhibitor I 0.033
